Assay results taken from article PMC4763200.
At least one result comes from cells or an extract, where the contact may be indirect. For some of these results: A negative result means that nothing was seen under these conditions. Construct, isoform or probe ends are uncertain for at least one entry. For some of these results: The direction of at least one scale is not stated here.

Protein sequences, listed by entry. Tags and fused reporters are not part of them.
UniProt P25490, whole entry: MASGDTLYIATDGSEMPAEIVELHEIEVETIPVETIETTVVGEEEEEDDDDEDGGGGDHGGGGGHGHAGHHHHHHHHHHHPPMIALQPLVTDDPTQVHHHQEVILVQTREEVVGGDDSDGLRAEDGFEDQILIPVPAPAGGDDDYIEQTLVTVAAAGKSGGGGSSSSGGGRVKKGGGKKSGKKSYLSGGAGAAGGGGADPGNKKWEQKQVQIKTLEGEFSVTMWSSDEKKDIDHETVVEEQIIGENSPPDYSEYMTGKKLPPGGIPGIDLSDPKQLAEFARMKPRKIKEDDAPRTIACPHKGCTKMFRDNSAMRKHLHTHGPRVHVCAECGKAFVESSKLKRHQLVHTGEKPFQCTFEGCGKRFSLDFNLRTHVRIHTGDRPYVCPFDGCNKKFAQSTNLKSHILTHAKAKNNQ
UniProt P25490, whole entry K411R: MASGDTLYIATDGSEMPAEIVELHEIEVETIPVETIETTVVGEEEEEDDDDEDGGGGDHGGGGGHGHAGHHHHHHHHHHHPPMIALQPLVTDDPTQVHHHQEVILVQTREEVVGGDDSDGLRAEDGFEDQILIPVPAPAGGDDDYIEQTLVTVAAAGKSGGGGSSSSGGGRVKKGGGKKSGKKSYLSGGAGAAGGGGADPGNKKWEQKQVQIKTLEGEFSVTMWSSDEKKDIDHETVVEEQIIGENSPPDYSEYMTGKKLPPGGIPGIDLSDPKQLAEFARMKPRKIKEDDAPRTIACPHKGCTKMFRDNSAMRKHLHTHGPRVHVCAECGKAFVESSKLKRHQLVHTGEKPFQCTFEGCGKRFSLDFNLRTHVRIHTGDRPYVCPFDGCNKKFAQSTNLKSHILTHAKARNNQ
UniProt P25490, whole entry K174R: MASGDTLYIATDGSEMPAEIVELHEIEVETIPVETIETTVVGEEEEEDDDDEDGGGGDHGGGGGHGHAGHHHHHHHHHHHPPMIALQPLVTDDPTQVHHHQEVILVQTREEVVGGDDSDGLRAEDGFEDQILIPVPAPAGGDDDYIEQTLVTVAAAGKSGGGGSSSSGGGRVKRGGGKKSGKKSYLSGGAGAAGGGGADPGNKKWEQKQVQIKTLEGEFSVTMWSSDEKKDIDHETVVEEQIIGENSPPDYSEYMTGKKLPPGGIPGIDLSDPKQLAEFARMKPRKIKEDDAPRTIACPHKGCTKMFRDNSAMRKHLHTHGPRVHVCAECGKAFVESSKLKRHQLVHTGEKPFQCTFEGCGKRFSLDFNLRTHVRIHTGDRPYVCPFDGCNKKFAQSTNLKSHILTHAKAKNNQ
UniProt P25490, whole entry K173R: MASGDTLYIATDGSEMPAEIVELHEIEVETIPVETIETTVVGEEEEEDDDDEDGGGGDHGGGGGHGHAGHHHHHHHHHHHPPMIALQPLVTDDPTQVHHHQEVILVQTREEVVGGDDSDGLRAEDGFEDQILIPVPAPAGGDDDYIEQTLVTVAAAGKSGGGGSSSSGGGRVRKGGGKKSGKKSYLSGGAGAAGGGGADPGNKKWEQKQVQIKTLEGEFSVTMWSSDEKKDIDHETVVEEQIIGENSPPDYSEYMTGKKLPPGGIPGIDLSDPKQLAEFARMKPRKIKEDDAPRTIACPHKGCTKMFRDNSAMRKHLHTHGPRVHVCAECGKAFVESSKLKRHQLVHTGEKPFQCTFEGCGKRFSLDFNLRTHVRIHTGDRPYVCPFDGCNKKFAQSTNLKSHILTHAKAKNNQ
UniProt P25490, whole entry K409R: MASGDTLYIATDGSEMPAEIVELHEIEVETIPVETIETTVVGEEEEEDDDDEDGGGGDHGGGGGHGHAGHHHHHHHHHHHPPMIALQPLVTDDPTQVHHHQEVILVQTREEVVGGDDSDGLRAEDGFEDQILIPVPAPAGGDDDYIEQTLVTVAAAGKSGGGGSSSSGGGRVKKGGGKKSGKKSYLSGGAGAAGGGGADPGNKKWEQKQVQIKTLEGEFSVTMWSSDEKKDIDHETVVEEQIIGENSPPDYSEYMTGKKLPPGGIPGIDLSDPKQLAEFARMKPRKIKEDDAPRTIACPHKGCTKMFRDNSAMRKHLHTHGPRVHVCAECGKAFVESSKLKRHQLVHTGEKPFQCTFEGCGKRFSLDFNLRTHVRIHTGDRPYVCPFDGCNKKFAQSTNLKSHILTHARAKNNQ

Key:
YY1 wt (Homo sapiens) [1] = biological target: YY1 wt (Homo sapiens) (UniProt P25490); experiment: competition with a labelled probe; conditions: excess unlabeled wt oligo vs biotinylated N1; 20 ul: 1x binding buffer (10 mM Tris pH 7.5, 50 mM KCl, 1 mM DTT), 2.5% glycerol, 5 mM MgCl2, 50 ng/ul poly(dI.dC), 0.05% NP-40; protein in a lysate after overexpression; scale: remaining probe shift, fraction of lane 3
YY1 K411R (Homo sapiens) = YY1 K411R (Homo sapiens) (UniProt P25490); experiment: EMSA; conditions: 20 ul: 1x binding buffer (10 mM Tris pH 7.5, 50 mM KCl, 1 mM DTT), 2.5% glycerol, 5 mM MgCl2, 50 ng/ul poly(dI.dC), 0.05% NP-40; protein in a lysate after overexpression; residues 1-414; protein details: Flag; label: 5' biotin on both strands
YY1 K174R (Homo sapiens) = YY1 K174R (Homo sapiens) (UniProt P25490); experiment: EMSA; conditions: 20 ul: 1x binding buffer (10 mM Tris pH 7.5, 50 mM KCl, 1 mM DTT), 2.5% glycerol, 5 mM MgCl2, 50 ng/ul poly(dI.dC), 0.05% NP-40; protein in a lysate after overexpression; residues 1-414; protein details: Flag; label: 5' biotin on both strands
YY1 K173R (Homo sapiens) = YY1 K173R (Homo sapiens) (UniProt P25490); experiment: EMSA; conditions: 20 ul: 1x binding buffer (10 mM Tris pH 7.5, 50 mM KCl, 1 mM DTT), 2.5% glycerol, 5 mM MgCl2, 50 ng/ul poly(dI.dC), 0.05% NP-40; protein in a lysate after overexpression; residues 1-414; protein details: Flag; label: 5' biotin on both strands
YY1 wt (Homo sapiens) [2] = biological target: YY1 wt (Homo sapiens) (UniProt P25490); experiment: EMSA; conditions: 20 ul: 1x binding buffer (10 mM Tris pH 7.5, 50 mM KCl, 1 mM DTT), 2.5% glycerol, 5 mM MgCl2, 50 ng/ul poly(dI.dC), 0.05% NP-40; protein in a lysate after overexpression; label: 5' biotin on both strands
YY1 K409R (Homo sapiens) = YY1 K409R (Homo sapiens) (UniProt P25490); experiment: EMSA; conditions: 20 ul: 1x binding buffer (10 mM Tris pH 7.5, 50 mM KCl, 1 mM DTT), 2.5% glycerol, 5 mM MgCl2, 50 ng/ul poly(dI.dC), 0.05% NP-40; protein in a lysate after overexpression; residues 1-414; protein details: Flag; label: 5' biotin on both strands

With “CGCTCCCCGGCCATCTTGGCGGCTGGT (double strand) [YY1 consensus site (wt), unlabeled competitor]” the binding signal (YY1 wt (Homo sapiens) [1]) was 0.15.

“CGCTCCCCGGCCATCTTGGCGGCTGGT (double strand) [YY1 consensus site (wt), biotinylated]” was tested, and the binding signal (fraction of YY1 wt (lane 3)) (YY1 K411R (Homo sapiens)) was 0.2, the binding signal (fraction of YY1 wt (lane 3)) (YY1 K174R (Homo sapiens)) was 0.94 and the binding signal (fraction of YY1 wt (lane 3)) (YY1 K173R (Homo sapiens)) was 0.62. The binding signal (fraction of YY1 wt (lane 3)) (YY1 wt (Homo sapiens) [2]) was 1 and the binding signal (fraction of YY1 wt (lane 3)) (YY1 K409R (Homo sapiens)) was 0.85.

“CGCTCCGCGATTATCTTGGCGGCTGGT (double strand) [YY1 mutant site (m), biotinylated]”: no binding (YY1 wt (Homo sapiens) [2]).
